# From patent US5360613A, “Method of reducing blood levels of total cholesterol and low-density lipoprotein cholesterol” (Iowa State University Research Foundation, Inc., priority 1993, dated 1994)
# For some assays here: The name of at least one read-out is uncertain. For some assays here: At least one compound was matched to its structure with a doubt left.
# What was measured:
# yolk cholesterol = settings: cited from earlier work
# plasma cholesterol = settings: cited from earlier work
# [1] = Plasma HMB in humans (Example IV); format: in vivo; settings: HMB treated; control subjects averaged 1.8 μM
# total serum cholesterol = settings: feeding to rats; cited from earlier work
# cholesterol = settings: cited from earlier work
# [2] = subjects with familial hypercholesterolemia
smiles,measurement,setting,value
"CC(C)CC(=O)C(=O)O [KIC, ketoisocaproic acid]",egg production of laying chickens,yolk cholesterol; KIC feeding,increased
same,yolk cholesterol,yolk cholesterol; eggs of KIC fed chickens,reduced yolk cholesterol
same,growth and feed efficiency,plasma cholesterol; KIC fed to cattle and sheep,enhancement of growth and feed efficiency
same,deposit of cholesterol in the meat,"plasma cholesterol; KIC feeding, cattle and sheep",some reduction
same,plasma cholesterol,"plasma cholesterol; KIC feeding, cattle and sheep",some reduction in plasma cholesterol
"CC(C)(O)CC(=O)O [HMB, β-hydroxy-β-methylbutyric acid]",concentration,[1],12 µM
"CC(O)(CC(=O)O)CC(=O)O [HMG, β-hydroxy-β-methylglutarate]",decrease of total serum cholesterol,total serum cholesterol,up to 20%
same,change of LDL,"cholesterol; 3 grams of HMG daily, 8 weeks",-8%
same,change of total cholesterol,"cholesterol; 3 grams of HMG daily, 8 weeks",-13%
same,decrease of HDL cholesterol,"cholesterol; 3 grams of HMG daily, 8 weeks",approximately 35%
same,LDL after treatment,"cholesterol; 3 grams of HMG daily, 8 weeks, from 333",307 mg %
same,total cholesterol after treatment,"cholesterol; 3 grams of HMG daily, 8 weeks, from 404",353 mg %
same,LDL cholesterol,cholesterol; [2],modest decrease
same,total cholesterol,cholesterol; [2],modest decrease
